Data on 53 compounds can be found in PubChem BioAssay AID1487 (National Center for Advancing Translational Sciences (NCATS), 2009).

In general, AC50 refers to the concentration at which the activity in the assay is half-maximal.

SMILES strings stand for the structures. This is one part of the list. The main result of the screen is listed elsewhere. These columns were measured beside it and carry no call. The list favours compounds with an active or inconclusive main result. Potencies come from curve fits of mixed quality, noted in brackets.

The assay in a line: qHTS Assay for Modulators of Lamin A Splicing. The note with it: HeLa LMNA splicing GFP/RFP minigene ratio, 48 h. In a few lines:
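S3 HeLa stable clones carrying a lamin A-EGFP splicing minigene plus DsRed2 were seeded at 600 cells/well in Opti-MEM with 2% FBS, pin-dosed and incubated 48 h at 37°C. Acumen cytometry (488 nm) gave the GFP/RFP total-intensity ratio.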
(In qHTS, concentration-response curves come from the screen itself.)

The mark [1] stands for this setting: measured here: RFP viability control channel.
[2] abbreviates: measured here: GFP splicing reporter channel.

On to `CC(=O)C1=C(c2ccc(Cl)c(Cl)c2)N(C(C)=O)n2c(nnc2C2CCCCC2)S1`, for which the AC50 under setting [1] is 35.5 µM [rising, single point].

Take `CCc1c(C)nc(SCC(=O)N2C(C)CCCC2C)[nH]c1=O` (stereo not given): the AC50 under setting [2] is 35.5 µM [falling, single point].

`COc1cccc(C(c2sc3ncnn3c2O)N2CCc3ccccc3C2)c1` (stereo not given): the AC50 under setting [1] was 35.5 µM [rising, single point].

For the compound `Cc1cccc(OCc2n(CC(=O)OC3CC(C)CCC3C(C)C)c3ccccc3[n+]2C)c1` (stereo not given), the AC50 by setting is: under setting [2], 14.1 µM [falling, partial curve, poor fit]; under setting [1], 11.2 µM [falling, partial curve].

As for `CCOc1ccc(OCC)c(NC(=O)c2cc(CN3CCOCC3)on2)c1`, the AC50 under setting [1] was 3.16 µM [falling, partial curve].

`Cc1ccccc1/C=N\NC(=O)c1ccccc1-n1cccc1`: the half-maximal activity concentration (AC50) under setting [2] was 0.112 µM [rising, full curve, poor fit].

In the case of `O=C(CN(c1ccc(Cl)c(C(F)(F)F)c1)S(=O)(=O)c1ccccc1)N/N=C/c1cccc2c1OCCO2`, the AC50 is 3.98 µM [falling, single point] under setting [2] and 5.62 µM [falling, partial curve, poor fit] under setting [1].

On to `CCOc1cccc(CN2CCN(c3cccc(C(F)(F)F)c3)CC2)c1O`, for which the AC50 under setting [1] was 31.6 µM [rising, single point].

Regarding `Cc1ccc(C(=O)Nc2ncc(Cc3ccc(SC(F)F)cc3)s2)cc1`, the AC50 under setting [1] was 0.708 µM [rising, full curve].

For the compound `COc1ccc(OCC(=O)N2CCN(c3nnc(-c4ccccc4)c4ccccc34)CC2)cc1`, the AC50 is 12.6 µM [rising, single point] under setting [2] and 31.6 µM [rising, single point] under setting [1].

Take `O=C(Nc1nc2c(s1)CCCC2)c1ccc(S(=O)(=O)N2CCCc3ccccc32)cc1`: the AC50 reads like this: under setting [2], 12.6 µM [rising, partial curve]; under setting [1], 7.08 µM [rising, partial curve].

As for `CSc1nc(Nc2cccc(C)c2)c(C#N)c(-c2ccccc2)n1`, the AC50 under setting [2] was 12.6 µM [rising, partial curve] and the AC50 under setting [1] was 10 µM [rising, partial curve, poor fit].

Regarding `COc1ccc(CNc2ccnc(-c3ccccc3CN(C)C)n2)c(OC)c1`, the AC50 under setting [2] is 7.94 µM [falling, partial curve].

Take `Cc1ccc(N2C(=O)C(NC(=O)c3ccccc3F)(C(F)(F)F)C3=C2CC(C)(C)CC3=O)cc1` (stereo not given): the AC50 reads like this: under setting [2], 17.8 µM [rising, partial curve]; under setting [1], 0.0708 µM [rising, full curve, poor fit].

`O=C(CCS(=O)(=O)c1ccccc1)Nc1nc2c(s1)COc1ccccc1-2`: the AC50 by setting is: under setting [2], 35.5 µM [falling, single point]; under setting [1], 35.5 µM [falling, single point].

With `Cc1cccc(C)c1NC(=O)NC1CC2CCC(C1)N2Cc1cccs1` (stereo not given), the AC50 under setting [1] is 0.141 µM [rising, full curve, poor fit].

In the case of `COCCN=C1Sc2nc3c(C)cccc3cc2CN1Cc1ccco1`, the AC50 runs as follows: under setting [2], 35.5 µM [falling, single point]; under setting [1], 25.1 µM [falling, single point].

With `CCCCCCC[N+](CC)(CC)CCCCc1ccc(Cl)cc1`, the AC50 under setting [1] was 7.08 µM [falling, partial curve, poor fit].

For `CC(C)(C)n1ncc2c(=O)n(CC(=O)N3CCCCCC3)cnc21`, the AC50 under setting [2] is 0.891 µM [falling, partial curve].

For `CC(OCC(O)CN(C)CCOc1ccccc1)c1ccc(Cl)cc1` (stereo not given), under setting [1], the AC50 was 0.0112 µM [falling, full curve, poor fit].

For `CCCCn1c(=O)[nH]c(=O)c2c1nc(-c1ccc(C)c([N+](=O)[O-])c1)n2CC`, the AC50 under setting [1] is 25.1 µM [rising, single point].

On to `CCOC(=O)C1CCN(C(=O)c2ccccc2NC(=O)c2ccc(Br)cc2)CC1`, for which the AC50 under setting [2] was 11.2 µM [rising, single point] and the AC50 under setting [1] was 20 µM [rising, single point].

On to `N#C/C(=C\c1ccc(-c2cccc([N+](=O)[O-])c2)o1)c1nnc(N2CCOCC2)n1-c1ccccc1`, for which the AC50 by setting is: under setting [2], 12.6 µM [falling, partial curve]; under setting [1], 11.2 µM [falling, partial curve].

As for `COc1ccc(OCCNC(=O)Nc2cc(F)c(F)cc2Cl)cc1`, under setting [1], the AC50 was 22.4 µM [rising, partial curve, poor fit].

On to `Cc1ccc(C(=O)Nc2c(C(=O)NC(C)(C)C)oc3ccccc23)cc1`, for which the AC50 reads like this: under setting [2], 3.55 µM [rising, full curve, poor fit]; under setting [1], 6.31 µM [rising, full curve].

In the case of `O=C1OC(c2cccc([N+](=O)[O-])c2)C2(CCCC2)C(=O)C12CCCCC2` (stereo not given), the AC50 was 14.1 µM [rising, single point] under setting [2] and 20 µM [rising, single point] under setting [1].

With `CCOC(=O)c1ccc(NC(=O)CSc2c(C(C)C)cnc3c2c(=O)n(C)c(=O)n3C)cc1`, the AC50 is 0.501 µM [rising, full curve, poor fit] under setting [2] and 14.1 µM [rising, single point] under setting [1].

Turning to `CCNS(=O)(=O)c1ccc(CCC(=O)NCCC2=CCCCC2)cc1`, under setting [2], the AC50 was 35.5 µM [rising, single point].

As for `Cc1cc(=O)oc2cc(OCCSc3nnc(-c4ccccc4)o3)ccc12`, under setting [1], the AC50 was 0.126 µM [rising, full curve, poor fit].

In the case of `COc1ccc2[nH]c3c(N4CCC(O)(c5cccc(C(F)(F)F)c5)CC4)ncnc3c2c1`, the AC50 under setting [2] is 35.5 µM [falling, single point] and the half-maximal activity concentration (AC50) under setting [1] is 35.5 µM [falling, single point].

In the case of `O=C(c1cnn2c(C(F)F)cc(-c3ccccc3)nc12)N1CCc2ccccc2C1`, the AC50 under setting [1] was 3.98 µM [falling, full curve].

For the compound `COc1ccc(N(C(=O)c2cccc([N+](=O)[O-])c2)S(=O)(=O)c2cccs2)cc1`, the AC50 under setting [2] is 0.891 µM [rising, full curve, poor fit].

Turning to `CC(C(=O)NC1CCCC1)N(Cc1ccco1)C(=O)c1snc(C(=O)NC2CCCC2)c1N` (stereo not given), the AC50 under setting [1] is 17.8 µM [rising, single point].

Consider `Cc1nnc(NC(=O)CSc2nc3c([nH]c4ccccc43)c(=O)n2-c2ccc(Cl)cc2)s1`, for which the AC50 under setting [2] is 17.8 µM [falling, single point] and the AC50 under setting [1] was 25.1 µM [falling, single point].

For `CC(N=c1ccccn1C(=O)Nc1ccc(Cl)cc1)c1ccco1` (stereo not given), the concentration at half-maximal activity (AC50) by setting is: under setting [2], 3.55 µM [falling, single point]; under setting [1], 3.16 µM [falling, partial curve, poor fit].

With `O=C(Nc1ccccc1)c1ccc(-c2ccc(Br)cc2)o1`, under setting [1], the AC50 was 35.5 µM [rising, single point].

Take `Cc1cc(C)c(S(=O)(=O)Nc2cc(SCC(=O)O)c(O)c3ccccc23)cc1C`: the AC50 under setting [2] is 35.5 µM [falling, single point].

For `Cc1cc(C)cc(NC(=O)c2cc(S(=O)(=O)NCCC3=CCCCC3)ccc2F)c1`, the AC50 under setting [2] was 35.5 µM [falling, single point] and the AC50 under setting [1] is 0.0251 µM [falling, full curve, poor fit].

For the compound `Cc1cccc(NC(=S)NCCC(C)C)c1`, under setting [2], the half-maximal activity concentration (AC50) was 0.178 µM [falling, full curve].

As to `CN(CC(=O)Nc1ccccc1N1CCOCC1)S(=O)(=O)c1ccc(Cl)cc1`, the AC50 under setting [1] is 17.8 µM [rising, single point].

On to `O=C(Nc1ccccc1C(=O)Nc1ccccn1)c1ccc([N+](=O)[O-])cc1`, for which the AC50 is, setting by setting: under setting [2], 35.5 µM [falling, partial curve]; under setting [1], 35.5 µM [falling, partial curve].

Turning to `O=C1O[C@@H]([C@@H](O)CO)[C@@H](O)[C@H]1O`, the AC50 was 11.2 µM [falling, single point] under setting [2] and 14.1 µM [falling, single point] under setting [1].

On to `CC(=O)Nc1ccc2nc(NC(=O)COc3ccccc3Cl)sc2c1`, for which the AC50 by setting is: under setting [2], 1.26 µM [rising, single point]; under setting [1], 1.26 µM [rising, single point].

In the case of `CCOC(=O)c1ccc(NC(=O)C2(c3ccc(OC)cc3)CCCC2)cc1`, the AC50 under setting [1] was 12.6 µM [rising, partial curve].

`COc1ccc(N2CCN(C(c3cccs3)C(C)NS(=O)(=O)c3ccccc3)CC2)cc1` (stereo not given): under setting [1], the AC50 was 14.1 µM [rising, partial curve].

With `O=C(CCNS(=O)(=O)c1cccc2nsnc12)NCc1ccco1`, the AC50 under setting [2] was 35.5 µM [rising, single point].

As to `CCc1ccc(NC(=O)C2CCN(c3nc(-c4ccc(OC)cc4)no3)CC2)cc1`, the AC50 under setting [1] was 35.5 µM [rising, single point].

Turning to `CCOc1ccc2nc(N3CCN(C(=O)c4ccc5c(c4)CCCC5)CC3)sc2c1`, the AC50 is 6.31 µM [falling, partial curve, poor fit] under setting [2] and 2.51 µM [falling, full curve, poor fit] under setting [1].

As to `O=[N+]([O-])c1ccc(/C=N/n2c(CO)nc3ccccc32)s1`, the AC50 under setting [1] was 3.98 µM [rising, single point].

As for `COCCCNC(=O)CN(CCc1ccccc1)S(=O)(=O)c1ccccc1`, under setting [1], the AC50 is 0.0158 µM [falling, full curve, poor fit].

Take `COc1cc(C(=O)NC(=S)Nc2ccc(N3CCCC3)cc2)cc(OC)c1OC`: the AC50 under setting [1] is 20 µM [rising, single point].

On to `Cc1ccc(C(=O)NCCc2cccc(Cl)c2)cc1[N+](=O)[O-]`, for which the AC50 by setting is: under setting [2], 5.01 µM [rising, single point]; under setting [1], 15.8 µM [rising, partial curve, poor fit].

For `CCOc1ccccc1OCCn1nnc2ccccc21`, under setting [1], the AC50 is 31.6 µM [rising, single point].
